According to PubChem BioAssay AID248 (DTP/NCI, 2004):
The list shows only some results of the screen, not a fair sample: it is rich in T/C values a quarter to a half above the control, in often repeated tests (any T/C) and in doses without a T/C. Other doses and runs of a compound stand elsewhere. T/C: endpoint of the treated group in % of that of the vehicle group. Some doses have a count of surviving animals in place of a T/C: the source files T/C as zero there, which appears to mark a toxic dose or a test without result, not a measured value. Some doses without a T/C left all or most animals alive at the check, yet need not have been tolerated: survival well below the control is almost never listed, so the zero probably covers shortened survival too. Survivors were counted at the toxicity check, usually on the fifth day, unless a day is given; later deaths do not show. Schedules are NCI's codes, read here as Q, the interval in days (D) or hours (H), X, the number of doses. Some doses were run more than once; the values are given in rising order. For survival time, the PubChem record calls one and a half times the control and up active, and a quarter to a half above the control has no call in these data; cut-offs in other NCI protocols can differ.

Tested on: L1210 leukemia ip in BDF1 mice, survival T/C
Test: NCI In Vivo Anticancer Drug Screen. Data for tumor model L1210 Leukemia (intraperitoneal) in B6D2F1 (BDF1) mice
Conditions: T/C endpoint: mean survival time, higher T/C = longer survival
[1] = dose: 30.0 mg/kg/injection, schedule: Q01DX001 (ip), vehicle: carboxymethylcellulose (CMC)
[2] = dose: 200.0 mg/kg/injection, schedule: Q01DX001 (ip), vehicle: saline with Tween-80
[3] = dose: 400.0 mg/kg/injection, schedule: Q01DX001 (ip), vehicle: saline with Tween-80
[4] = dose: 200.0 mg/kg/injection, schedule: Q04DX003 (ip), vehicle: saline
[5] = dose: 200.0 mg/kg/injection, schedule: Q01DX001 (ip), vehicle: saline
[6] = dose: 400.0 mg/kg/injection, schedule: Q01DX001 (ip), vehicle: saline

O=C1CC(c2ccc(OCN(CCCl)CCCl)cc2)CC(=O)C1CN(CCCl)CCCl (stereo unspecified)
T/C (dose: 0.5 mg/kg/injection, schedule: Q04DX003 (ip), vehicle: saline): 126 % of control
survivor count (dose: 0.59 mg/kg/injection, schedule: Q01DX009 (ip), vehicle: carboxymethylcellulose (CMC)): 6 of 6
T/C (dose: 0.75 mg/kg/injection, schedule: Q01DX009 (ip), vehicle: saline): 134 % of control
survivor count (dose: 0.75 mg/kg/injection, schedule: Q04DX003 (ip), vehicle: saline): 6 of 6
T/C (dose: 1.0 mg/kg/injection, schedule: Q01DX001 (ip), vehicle: saline): 138 % of control
T/C (dose: 1.0 mg/kg/injection, schedule: Q04DX003 (ip), vehicle: saline): 129 % of control
T/C (dose: 1.5 mg/kg/injection, schedule: Q01DX009 (ip), vehicle: saline): 129 % of control
survivor count (dose: 1.5 mg/kg/injection, schedule: Q04DX003 (ip), vehicle: saline): 6 of 6
survivor count (dose: 2.0 mg/kg/injection, schedule: Q01DX001 (ip), vehicle: saline): 6 of 6
survivor count (dose: 2.2 mg/kg/injection, schedule: Q01DX009 (ip), vehicle: carboxymethylcellulose (CMC)): 5 of 6
T/C (dose: 3.0 mg/kg/injection, schedule: Q04DX003 (ip), vehicle: saline): 135 % of control
survivor count (dose: 3.3 mg/kg/injection, schedule: Q01DX009 (ip), vehicle: carboxymethylcellulose (CMC)): 4 of 6
T/C (dose: 4.4 mg/kg/injection, schedule: Q01DX009 (ip), vehicle: carboxymethylcellulose (CMC)): 138 % of control
survivor count (dose: 4.4 mg/kg/injection, schedule: Q01DX009 (ip), vehicle: saline): 6 of 6
survivor count (dose: 5.0 mg/kg/injection, schedule: Q01DX009 (ip), vehicle: carboxymethylcellulose (CMC)): 5 of 6
survivor count (dose: 6.6 mg/kg/injection, schedule: Q01DX009 (ip), vehicle: saline): 6 of 6
survivor count (dose: 8.0 mg/kg/injection, schedule: Q01DX001 (ip), vehicle: saline): 4 of 6 and 6 of 6
survivor count (dose: 10.0 mg/kg/injection, schedule: Q01DX009 (ip), vehicle: carboxymethylcellulose (CMC)): 4 of 6
survivor count (dose: 10.0 mg/kg/injection, schedule: Q01DX009 (ip), vehicle: saline): 5 of 6
T/C (dose: 13.0 mg/kg/injection, schedule: Q01DX001 (ip), vehicle: carboxymethylcellulose (CMC)): 136 % of control
T/C (dose: 15.0 mg/kg/injection, schedule: Q01DX001 (ip), vehicle: carboxymethylcellulose (CMC)): 145 % of control
survivor count (dose: 15.0 mg/kg/injection, schedule: Q01DX001 (ip), vehicle: saline): 4 of 6
survivor count (dose: 15.0 mg/kg/injection, schedule: Q01DX009 (ip), vehicle: carboxymethylcellulose (CMC)): 5 of 6
survivor count (dose: 20.0 mg/kg/injection, schedule: Q01DX001 (ip), vehicle: carboxymethylcellulose (CMC)): 3 of 6
survivor count (dose: 20.0 mg/kg/injection, schedule: Q01DX009 (ip), vehicle: carboxymethylcellulose (CMC)): 0 of 6
T/C [1]: 142 % of control
survivor count [1]: 2 of 6
survivor count (dose: 30.0 mg/kg/injection, schedule: Q01DX001 (ip), vehicle: saline): 5 of 6
survivor count (dose: 30.0 mg/kg/injection, schedule: Q04DX003 (ip), vehicle: saline): 6 of 6
T/C (dose: 60.0 mg/kg/injection, schedule: Q01DX001 (ip), vehicle: carboxymethylcellulose (CMC)): 142 % of control
survivor count (dose: 60.0 mg/kg/injection, schedule: Q01DX001 (ip), vehicle: saline): 0 of 6
survivor count (dose: 60.0 mg/kg/injection, schedule: Q04DX003 (ip), vehicle: saline): 5 of 6
survivor count (dose: 75.0 mg/kg/injection, schedule: Q01DX001 (ip), vehicle: carboxymethylcellulose (CMC)): 4 of 6
survivor count (dose: 150.0 mg/kg/injection, schedule: Q01DX001 (ip), vehicle: carboxymethylcellulose (CMC)): 5 of 6
survivor count (dose: 300.0 mg/kg/injection, schedule: Q01DX001 (ip), vehicle: carboxymethylcellulose (CMC)): 0 of 6
T/C (dose: 2.0 micrograms/kg/injection, schedule: Q01DX001 (ip), vehicle: saline with Tween-80): 126 % of control
T/C (dose: 4.0 micrograms/kg/injection, schedule: Q01DX001 (ip), vehicle: saline with Tween-80): 145 % of control
survivor count (dose: 8.0 micrograms/kg/injection, schedule: Q01DX001 (ip), vehicle: saline with Tween-80): 5 of 6

CCC(=O)N(N=O)c1ccccc1
survivor count (dose: 37.5 mg/kg/injection, schedule: Q01DX001 (ip), vehicle: saline): 1 of 6
survivor count (dose: 75.0 mg/kg/injection, schedule: Q01DX001 (ip), vehicle: saline): 0 of 6

CN(C)C1CCC(Nc2nc(Nc3cc(Cl)cc(Cl)c3)nc3ccccc23)CC1 (stereo unspecified)
survivor count [2]: 1 of 6
survivor count [3]: 0 of 6

O=C(c1cccc([N+](=O)[O-])c1)c1[nH]c2sc3c(c2c1O)CCCC3
survivor count (dose: 25.0 mg/kg/injection, schedule: Q01DX009 (ip), vehicle: Klucel (hydroxypropylcellulose) (HPC)): 6 of 6
survivor count (dose: 50.0 mg/kg/injection, schedule: Q01DX009 (ip), vehicle: Klucel (hydroxypropylcellulose) (HPC)): 0 of 6
survivor count (dose: 100.0 mg/kg/injection, schedule: Q01DX009 (ip), vehicle: Klucel (hydroxypropylcellulose) (HPC)): 0 of 6
survivor count (dose: 200.0 mg/kg/injection, schedule: Q01DX009 (ip), vehicle: Klucel (hydroxypropylcellulose) (HPC)): 0 of 6
survivor count (dose: 400.0 mg/kg/injection, schedule: Q01DX009 (ip), vehicle: Klucel (hydroxypropylcellulose) (HPC)): 0 of 6

CC(C)(C)OC(=O)C(CC(=O)O)NC(=O)OCc1ccccc1 (stereo unspecified) (tested in a mixture with another compound)
survivor count [4]: 3 of 6
survivor count (dose: 400.0 mg/kg/injection, schedule: Q04DX003 (ip), vehicle: saline): 0 of 6

N#CC1(C#N)OC(C#N)(C#N)C2C1C=CC1C2C1(C#N)C#N (stereo unspecified)
survivor count (dose: 100.0 mg/kg/injection, schedule: Q01DX001 (ip), vehicle: saline with Tween-80): 0 of 3
survivor count [2]: 0 of 3
survivor count [3]: 0 of 3

CCCCCCCCC(=O)N(CCCC)CCCC
survivor count (dose: 400.0 mg/kg/injection, schedule: Q01DX009 (ip), vehicle: carboxymethylcellulose (CMC)): 2 of 3

C[N+](C)(C)CCCNC(=O)Nc1ccc(Cl)cc1
survivor count (dose: 100.0 mg/kg/injection, schedule: Q04DX002 (ip), vehicle: saline): 0 of 3
survivor count (dose: 200.0 mg/kg/injection, schedule: Q04DX002 (ip), vehicle: saline): 0 of 3
survivor count (dose: 400.0 mg/kg/injection, schedule: Q04DX002 (ip), vehicle: saline): 0 of 3

NNCC(F)(F)F
survivor count [5]: 1 of 6
survivor count [6]: 0 of 6

CC(C)(C)C(=O)CN
T/C (dose: 100.0 mg/kg/injection, schedule: Q04DX002 (ip), vehicle: saline, evaluated on day 20): 105 % of control
T/C (dose: 100.0 mg/kg/injection, schedule: Q04DX002 (ip), vehicle: saline, evaluated on day 30): 98, 100, 107 % of control
T/C (dose: 200.0 mg/kg/injection, schedule: Q04DX002 (ip), vehicle: saline, evaluated on day 20): 86 % of control
T/C (dose: 200.0 mg/kg/injection, schedule: Q04DX002 (ip), vehicle: saline, evaluated on day 30): 105, 106, 109 % of control
T/C (dose: 400.0 mg/kg/injection, schedule: Q04DX002 (ip), vehicle: saline, evaluated on day 20): 94 % of control
T/C (dose: 400.0 mg/kg/injection, schedule: Q04DX002 (ip), vehicle: saline, evaluated on day 30): 97, 98, 126 % of control

CCN(CC)CCCN1c2ccccc2Sc2ccc(Cl)cc21
survivor count (dose: 25.0 mg/kg/injection, schedule: Q01DX009 (ip), vehicle: saline): 0 of 6
survivor count (dose: 50.0 mg/kg/injection, schedule: Q04DX003 (ip), vehicle: saline): 0 of 4
survivor count (dose: 100.0 mg/kg/injection, schedule: Q04DX003 (ip), vehicle: saline): 1 of 4
survivor count [4]: 0 of 4

c1cnc2ccc3c(c2c1)COCO3
survivor count [5]: 2 of 6
survivor count [6]: 0 of 6

CS(=O)(=O)n1c(CBr)nc2ccccc21
survivor count (dose: 400.0 mg/kg/injection, schedule: Q04DX003 (ip), vehicle: saline sonified): 0 of 6
